No constants are given. Whether binding was seen depends on the method and setting. In cells and extracts the contact can be indirect. Some binding calls cover weakened binding; strength is not graded here. For some assays here: Tags and fused reporters may be left off the sequences shown. Blank lines part the entries; values can stand above or below the substance they belong to.
Legend:
[1] = molecular target: NMHC-IIA (endogenous in RAW 264.7 cells) (mouse (endogenous in RAW 264.7)) (UniProt Q8VDD5); assay: co-IP
[2] = molecular target: T1, 3×Flag-DAP12 (in CRL-2843-CD163 cells) (pig) (UniProt Q9TU45); assay: co-IP; CRL-2843-CD163 cells transfected with 3×Flag-DAP12 or 3×Flag-DAP12 mutants for 48 h, infected with PRRSV (MOI = 5) for 1 h; Flag-tagged proteins immunoprecipitated; immunoblot
T1 sequence: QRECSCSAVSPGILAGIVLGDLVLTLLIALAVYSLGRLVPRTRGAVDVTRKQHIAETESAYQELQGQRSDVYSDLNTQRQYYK

The chains behind the UniProt entries cited, without tags or fusion partners. Residues count along the entry.
UniProt Q8VDD5: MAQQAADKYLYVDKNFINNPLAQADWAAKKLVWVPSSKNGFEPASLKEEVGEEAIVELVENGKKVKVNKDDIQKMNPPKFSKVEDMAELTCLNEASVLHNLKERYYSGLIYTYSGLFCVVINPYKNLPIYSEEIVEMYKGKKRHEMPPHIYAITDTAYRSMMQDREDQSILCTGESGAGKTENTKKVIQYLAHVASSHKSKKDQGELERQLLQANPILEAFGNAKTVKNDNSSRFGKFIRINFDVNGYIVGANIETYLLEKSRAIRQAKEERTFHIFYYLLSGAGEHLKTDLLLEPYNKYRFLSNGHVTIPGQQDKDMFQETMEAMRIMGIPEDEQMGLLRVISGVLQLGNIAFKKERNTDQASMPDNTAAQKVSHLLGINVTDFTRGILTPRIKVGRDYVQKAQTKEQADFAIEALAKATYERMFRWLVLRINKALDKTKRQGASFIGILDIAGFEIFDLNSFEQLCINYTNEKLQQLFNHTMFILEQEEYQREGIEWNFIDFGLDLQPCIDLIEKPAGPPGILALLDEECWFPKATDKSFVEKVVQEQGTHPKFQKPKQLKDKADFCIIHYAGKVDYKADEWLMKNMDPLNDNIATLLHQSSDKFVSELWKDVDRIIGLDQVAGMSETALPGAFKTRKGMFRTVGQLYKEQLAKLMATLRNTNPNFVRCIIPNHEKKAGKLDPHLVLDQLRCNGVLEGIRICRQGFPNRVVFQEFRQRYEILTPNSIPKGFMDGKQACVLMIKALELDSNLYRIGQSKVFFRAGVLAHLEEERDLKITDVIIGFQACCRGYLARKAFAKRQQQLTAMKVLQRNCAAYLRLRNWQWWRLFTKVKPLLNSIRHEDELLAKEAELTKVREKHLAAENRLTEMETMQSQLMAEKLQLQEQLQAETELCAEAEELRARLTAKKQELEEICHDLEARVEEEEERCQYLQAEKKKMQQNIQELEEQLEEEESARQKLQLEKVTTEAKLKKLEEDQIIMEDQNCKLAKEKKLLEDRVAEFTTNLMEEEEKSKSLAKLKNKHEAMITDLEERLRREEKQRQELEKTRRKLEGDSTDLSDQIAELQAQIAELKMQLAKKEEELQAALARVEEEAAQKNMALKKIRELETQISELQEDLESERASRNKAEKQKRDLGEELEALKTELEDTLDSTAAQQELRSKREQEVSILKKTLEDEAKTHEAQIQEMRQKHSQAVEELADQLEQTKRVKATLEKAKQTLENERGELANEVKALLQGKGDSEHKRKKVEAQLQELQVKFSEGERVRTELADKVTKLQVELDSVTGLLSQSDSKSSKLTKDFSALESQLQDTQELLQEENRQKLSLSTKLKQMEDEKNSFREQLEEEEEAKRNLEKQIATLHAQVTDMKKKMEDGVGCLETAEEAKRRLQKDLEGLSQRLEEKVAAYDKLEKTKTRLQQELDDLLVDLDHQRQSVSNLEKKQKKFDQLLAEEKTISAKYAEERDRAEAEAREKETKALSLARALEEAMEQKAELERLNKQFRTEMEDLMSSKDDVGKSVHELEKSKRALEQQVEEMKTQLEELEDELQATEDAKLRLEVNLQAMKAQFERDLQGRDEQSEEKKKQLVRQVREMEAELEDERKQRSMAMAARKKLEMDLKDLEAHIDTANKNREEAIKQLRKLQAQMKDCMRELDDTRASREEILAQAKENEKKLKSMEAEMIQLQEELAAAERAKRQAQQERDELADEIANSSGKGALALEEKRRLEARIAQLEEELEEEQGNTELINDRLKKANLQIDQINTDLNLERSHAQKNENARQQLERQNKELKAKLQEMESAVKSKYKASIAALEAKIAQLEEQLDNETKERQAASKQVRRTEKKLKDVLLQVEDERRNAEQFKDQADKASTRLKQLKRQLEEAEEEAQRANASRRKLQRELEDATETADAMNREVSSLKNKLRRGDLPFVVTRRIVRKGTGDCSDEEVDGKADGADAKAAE
UniProt O54885, residues 22-114: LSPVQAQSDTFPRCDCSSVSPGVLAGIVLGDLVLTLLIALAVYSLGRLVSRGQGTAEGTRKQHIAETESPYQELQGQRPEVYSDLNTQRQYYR
UniProt Q00655: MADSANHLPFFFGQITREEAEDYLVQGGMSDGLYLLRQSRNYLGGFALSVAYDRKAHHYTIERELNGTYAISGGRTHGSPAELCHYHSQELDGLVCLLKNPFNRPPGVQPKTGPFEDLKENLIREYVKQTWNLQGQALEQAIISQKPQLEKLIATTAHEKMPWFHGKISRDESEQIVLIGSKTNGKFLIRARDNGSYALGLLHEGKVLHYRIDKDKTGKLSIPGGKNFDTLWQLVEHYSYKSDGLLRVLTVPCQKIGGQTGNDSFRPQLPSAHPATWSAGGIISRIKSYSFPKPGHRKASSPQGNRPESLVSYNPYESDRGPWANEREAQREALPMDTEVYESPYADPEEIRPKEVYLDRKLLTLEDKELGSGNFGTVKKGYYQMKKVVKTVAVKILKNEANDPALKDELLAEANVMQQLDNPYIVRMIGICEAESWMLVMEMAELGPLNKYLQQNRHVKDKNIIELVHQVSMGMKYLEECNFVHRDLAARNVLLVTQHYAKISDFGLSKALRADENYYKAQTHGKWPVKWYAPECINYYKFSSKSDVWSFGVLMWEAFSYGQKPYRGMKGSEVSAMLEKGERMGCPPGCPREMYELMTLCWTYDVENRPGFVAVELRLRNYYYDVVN

[3] = molecular target: T1, 3×Flag-DAP12 (in CRL-2843-CD163 cells) (pig); assay: co-IP; CRL-2843-CD163 cells transfected with Syk-myc-his and 3×Flag-DAP12, mock infected or infected with PRRSV (MOI = 1) for 1 h; IP with anti-Flag MAb; NP-40 lysis buffer
[4] = molecular target: T2, 3×Flag-DAP12 (in HEK-293T cells) (pig) (UniProt Q9TU45); assay: co-IP; HEK-293T cells cotransfected with 3×Flag-DAP12 and Syk-myc-his for 48 h; IP with anti-Myc or anti-Flag MAb; NP-40 lysis buffer
T2 sequence: T1 sequence

[5] = molecular target: T3, DNAX activation protein of 12 kDa (DAP12) (pig (endogenous in PAMs)) (UniProt Q9TU45); assay: co-IP
T3 sequence: T1 sequence

Substance: DAP12 (endogenous in RAW 264.7 cells) (from UniProt O54885 22-114)
binding [1]: binds

Substance: Syk-myc-his (in HEK-293T cells) (from UniProt Q00655 1-628)
binding [4]: binds

Substance: spleen tyrosine kinase (Syk) (from UniProt Q00655 1-628)
binding [5]: binds

The remaining lines, values ahead:

binding [2]: binds
Substance: Syk (in CRL-2843-CD163 cells transfected with DAP12 constructs only) (from UniProt Q00655 1-628)

binding [3]: binds
Substance: Syk-myc-his (in CRL-2843-CD163 cells) (from UniProt Q00655 1-628)

Source: PMC6509187
